Laboratory results: PMC10516600
No constants are given. Whether binding was seen depends on the method and setting. In cells and extracts the contact can be indirect. A result given as binding can be weak or reduced; the word gives no strength. For some of these results: Sequences can lack the tags named with a protein.

Columns and labels:
[1] = biological target: T1, exogenous CRB3b (CRB3-GFP) stably expressed in MCF10A cells (human) (UniProt Q9BUF7); assay: co-IP; MCF10A cells expressing exogenous CRB3b (CRB3-GFP); lysate in NP40 buffer, Dynabeads protein G kit, immunoblot; baits exogenous CRB3b or Rab11
T1 sequence: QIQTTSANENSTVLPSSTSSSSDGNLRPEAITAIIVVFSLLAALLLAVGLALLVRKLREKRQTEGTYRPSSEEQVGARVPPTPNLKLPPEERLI

[2] = biological target: T2, CRB3 (endogenous, MCF10A cells) (human (endogenous in MCF10A)) (UniProt Q9BUF7); assay: co-IP; endogenous proteins in MCF10A lysate (NP40 buffer), Dynabeads protein G kit, immunoblot; baits CRB3, Rab11 or GCP6; control shRNA and CRB3 knockdown cells
T2 sequence: T1 sequence

[3] = biological target: Rab11 (endogenous, MCF10A cells) (human (endogenous in MCF10A)); assay: as above
[4] = biological target: Rab11 (endogenous, MCF10A cells) (human (endogenous in MCF10A)); assay: co-IP; MCF10A cells expressing exogenous CRB3b (CRB3-GFP); lysate in NP40 buffer, Dynabeads protein G kit, immunoblot; baits exogenous CRB3b or Rab11

Question: Which binding [1] does the source give for “Rab11 (endogenous, MCF10A cells) (human (endogenous in MCF10A))” here?
Answer: Its binding is “binds”.

Question: And the binding [2]?
Answer: The binding was “binds”.

B1: CRB3 (endogenous, MCF10A cells) (protein, UniProt Q9BUF7 27-120)
chain: T1 sequence
Question: For B1, which binding [3] is on record?
Answer: Its binding is “binds”.

B2: exogenous CRB3b (CRB3-GFP) stably expressed in MCF10A cells (protein, UniProt Q9BUF7 27-120)
chain: T1 sequence
Question: With B2 as the molecule, how does the binding [4] read?
Answer: The binding was “binds”.
